Measured values: US20050221291A1
Results are given in words; binding and its absence hold for the method and conditions named. Some binding calls cover weakened binding; strength is not graded here. Tags and fused reporters may be left off the sequences shown.

Amino acid sequences for entries named in this document (tags omitted). A change or cut given only in a name is not applied to a line headed by its entry.
UniProt Q9NNX6: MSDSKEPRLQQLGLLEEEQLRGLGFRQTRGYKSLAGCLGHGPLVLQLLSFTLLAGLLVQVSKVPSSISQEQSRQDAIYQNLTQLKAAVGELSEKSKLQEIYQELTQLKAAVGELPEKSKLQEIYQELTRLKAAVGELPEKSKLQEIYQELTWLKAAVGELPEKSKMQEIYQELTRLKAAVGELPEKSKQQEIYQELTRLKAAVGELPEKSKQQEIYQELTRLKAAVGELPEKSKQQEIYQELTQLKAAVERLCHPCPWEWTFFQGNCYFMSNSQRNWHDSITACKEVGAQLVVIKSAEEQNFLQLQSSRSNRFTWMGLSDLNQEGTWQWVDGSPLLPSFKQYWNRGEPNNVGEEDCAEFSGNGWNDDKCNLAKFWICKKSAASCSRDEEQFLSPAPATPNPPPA

Target: DC-SIGN1 expressed on transfected THP-1 cells (prototypic membrane-associated DC-SIGN1, mDC-SIGN1A type I) (human) (UniProt Q9NNX6)
Assay: fluorescent bead adhesion assay, flow cytometry

B1: ICAM-3/Fc (Fc fusion, UniProt P32942 30-485, looked up, not shown: a dimerising Fc or GST)
chain: QEFLLRVEPQNPVLSAGGSLFVNCSTDCPSSEKIALETSLSKELVASGMGWAAFNLSNVTGNSRILCSVYCNGSQITGSSNITVYRLPERVELAPLPPWQPVGQNFTLRCQVEDGSPRTSLTVVLLRWEEELSRQPAVEEPAEVTATVLASRDDHGAPFSCRTELDMQPQGLGLFVNTSAPRQLRTFVLPVTPPRLVAPRFLEVETSWPVDCTLDGLFPASEAQVYLALGDQMLNATVMNHGDTLTATATATARADQEGAREIVCNVTLGGERREARENLTVFSFLGPIVNLSEPTAHEGSTVTVSCMAGARVQVTLDGVPAAAPGQPAQLQLNATESDDGRSFFCSATLEVDGEFLHRNSSVQLRVLYGPKIDRATCPQHLKWKDKTRHVLQCQARGNPYPELRCLKEGSSREVPVGIPFFVNVTHNGTYQCQASSSRGKYTLVVVMDIEAGSSH
binding: binds
